PubChem BioAssay AID540256 (National Center for Advancing Translational Sciences (NCATS), 2011)
In all, about 300,000 compounds went through this assay and about 3,700 (1.2%) were called active. Inconclusive results, whose numbers are uncertain, are shown with a selection of clear calls. The call rests on the fitted dose curve; tested in HEK293 cells. Potencies beside an inconclusive call are fits to weak or partial responses and may not hold up.

Assay: qHTS for Inhibitors of binding or entry into cells for Lassa Virus; further: nearly all actives have a fitted effect of over 50% in size
Settings: Lassa virus pseudotype entry inhibition, cell reporter; series mostly up to 37.9 µM
Potency means the concentration at half of the fitted maximal effect.

Row | SMILES | Potency
1 | O=C(COc1ccc(Cl)cc1)NCCc1csc(-c2ccc(C(F)(F)F)cc2)n1 | inactive
2 | O=C(O)c1cc([N+](=O)[O-])ccc1C(=O)Nc1cccc([N+](=O)[O-])c1 | inactive
3 | Cc1ccc2c(c1)cc(C(=O)N1CCN(c3ccccn3)CC1)n2C | inconclusive: 17.8 µM [inhibitor, single point]
4 | COc1cccc(N=Nc2c(N)[nH]n3c(=O)cc(-c4ccccc4)nc23)c1 | inactive
5 | COc1cc(NC(=O)NCC2CCN(Cc3ccccc3C)CC2)cc(OC)c1OC | inconclusive: 0.891 µM [inhibitor, single point]
6 | CCCSc1nc(C)c(CC(=O)OCC)c(=O)[nH]1 | inactive
7 | FC(F)(F)c1cccc(Nc2nccc(-c3cnn4nc(-c5ccccc5)ccc34)n2)c1 | inconclusive: 19.9 µM [inhibitor, partial curve, poor fit]
8 | Cn1cccc1Cc1nnc(SCC(=O)Nc2cccc(Cl)c2)n1-c1ccc(F)cc1 | inactive
9 | COc1ccc(-c2nn(-c3ccccc3)cc2/C=C/C(=O)N2CCN(c3ccccn3)CC2)cc1 | inconclusive: 25.1 µM [inhibitor, single point]
10 | COc1ccccc1-c1cc(C(F)(F)F)nc(S(=O)(=O)CCCC(=O)Nc2ccccc2F)n1 | inconclusive: 31.6 µM [inhibitor, partial curve, poor fit]
11 | O=S(=O)(c1ccccc1F)N(Cc1ccco1)Cc1nnc(-c2ccccc2Br)o1 | inconclusive: 15.8 µM [inhibitor, partial curve, poor fit]
12 | NC(=O)/C(=C/c1ccco1)C(N)=S | inactive
13 | O=C(CCl)NNC(=O)c1c(O)c2ccccc2[nH]c1=O | inactive
14 | CC(=O)C1=C(C)NC(SCC(=O)Nc2nc3ccccc3s2)=C(C#N)C1c1ccc(Cl)cc1 (stereo not given) | inactive
15 | COCc1c(C(=O)N/N=C(/C)c2ccc(OCc3ccccc3)cc2)nnn1-c1nonc1N | inactive
16 | CC(=O)c1cccc(-n2nnnc2SCC(=O)Nc2ccccc2N2CCCCC2)c1 | inconclusive: 11.2 µM [inhibitor, partial curve]
17 | COc1ccc(Cn2c(SCc3ccc(C(=O)NC4CCCCC4)cc3)nc3cccnc32)cc1 | inconclusive: 10 µM [inhibitor, partial curve, poor fit]
18 | CCc1ccc(/C=N/NC(=O)c2ccc(OC3CCCC3)cc2)s1 | active: 2 µM
19 | O=C(CNC(=O)c1cccc(Br)c1)N/N=C/c1ccc[nH]1 | inconclusive: 3.98 µM [inhibitor, full curve, poor fit]
20 | CCN(CC)C(=O)N1CCN(C(=O)N2CCOCC2)CC1 | inconclusive: 25.1 µM [activator, partial curve, poor fit]

Nothing new here: entries from further up.
Row | SMILES | Potency
10 | COc1ccccc1-c1cc(C(F)(F)F)nc(S(=O)(=O)CCCC(=O)Nc2ccccc2F)n1 | inconclusive: 31.6 µM [inhibitor, partial curve, poor fit]
11 | O=S(=O)(c1ccccc1F)N(Cc1ccco1)Cc1nnc(-c2ccccc2Br)o1 | inconclusive: 15.8 µM [inhibitor, partial curve, poor fit]
